Experimental data: patent publication US20220017630A1 (JIANGSU SIMCERE PHARMACEUTICAL, published 2022)
No constants are given. Whether binding was seen depends on the method and setting. Some entries that bind do so weakly or less than the wild type.

Chains of the proteins cited; added tags and fusions are not shown. Lines headed by an entry give the natural chain unless they say otherwise; changes in a name come on top. Residues count along the entry.
UniProt P20333: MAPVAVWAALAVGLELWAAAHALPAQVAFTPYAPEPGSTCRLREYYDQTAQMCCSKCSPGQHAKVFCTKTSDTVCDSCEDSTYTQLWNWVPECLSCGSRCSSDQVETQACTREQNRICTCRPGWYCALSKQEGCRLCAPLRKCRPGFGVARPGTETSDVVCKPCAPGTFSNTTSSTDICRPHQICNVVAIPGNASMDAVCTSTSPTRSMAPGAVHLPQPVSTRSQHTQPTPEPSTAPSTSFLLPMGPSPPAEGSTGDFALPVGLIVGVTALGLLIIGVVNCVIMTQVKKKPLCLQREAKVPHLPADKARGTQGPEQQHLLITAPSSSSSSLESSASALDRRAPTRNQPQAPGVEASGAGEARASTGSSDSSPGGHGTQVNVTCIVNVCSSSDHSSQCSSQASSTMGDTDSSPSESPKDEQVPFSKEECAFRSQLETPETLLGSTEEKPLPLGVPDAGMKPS
human TNFR2 on the cell surface (CHO-TNFR2 cells; human Treg cells): residues 23-461 of P20333
Human TNFR2 recombinant protein (Sino 10417-H08H): residues 23-257 of P20333

What was measured:
[1] = biological target: cynomolgus TNFR2 (Sino 90102-C08H) (cynomolgus); experiment: SPR Biacore
[2] = biological target: cynomolgus TNFR2 (Sino 90102-C08H) (cynomolgus); experiment: recap of the earlier examples, method not named
[3] = biological target: cynomolgus TNFR2 (Sino 90102-C08H) (cynomolgus); experiment: ELISA
[4] = biological target: Human TNFR2 recombinant protein (Sino 10417-H08H) (human) (UniProt P20333); experiment: SPR Biacore
[5] = biological target: human TNFR2 on the cell surface (CHO-TNFR2 cells; human Treg cells) (human) (UniProt P20333); experiment: flow cytometry on CHO-TNFR2 cells, antibody diluted to 80 ng/ml, PE goat anti-human IgG Fc
[6] = biological target: human TNFR2 on the cell surface (CHO-TNFR2 cells; human Treg cells) (human) (UniProt P20333); experiment: flow cytometry competition on CHO-TNFR2 cells against human TNFα-biotin [label on D00006), panel #088]
[7] = biological target: human TNFR2 on the cell surface (CHO-TNFR2 cells; human Treg cells) (human) (UniProt P20333); experiment: flow cytometry on human Treg cells, antibody 200 ng/ml
[8] = biological target: human TNFR2 on the cell surface (CHO-TNFR2 cells; human Treg cells) (human) (UniProt P20333); experiment: flow cytometry on expanded human Treg cells, antibody 200 ng/ml, PE goat anti-human IgG Fc
[9] = biological target: Human TNFR2 recombinant protein (Sino 10417-H08H) (human) (UniProt P20333); experiment: recap of the earlier examples, method not named
[10] = biological target: Human TNFR2 recombinant protein (Sino 10417-H08H) (human) (UniProt P20333); experiment: ELISA
[11] = biological target: human TNFR2 on the cell surface (CHO-TNFR2 cells; human Treg cells) (human) (UniProt P20333); experiment: flow cytometry on CHO-TNFR2 cells, antibody diluted to 80 ng/ml

Row | binding [1] | binding [2] | binding [3] | Binder | also measured
1 | binds | binds | binds | TNFR2 antibody #309 (antibody, V domains shown) VH: EVQLQESGAELVKPGASVKLSCKASGYTFTSYWIHWVKLRPGQGFEWIGEINPNNGGTDYNEKFKRKATLTVDKSSSTAYMELSSLTSEDSAIYYCTIDSMITTTWFAYWGQGTTVTVSS VL: EIVMTQSQKLMSTVVGDRVSVTCKASQNVGTNVAWFQQKPGQSPKALINSASYRYSGVPDRFTGSGSGTDFTLTISSVQSEDLAEYFCQQYNSYPFTFGSGTKLEIK | –
2 | binds | binds | binds | TNFR2 antibody #219 (antibody, V domains shown) VH: EVQLQESGAELVRPGASVKLSCKASGYSFTNYWMNWVKQRPGQGLEWIGMIHPSDTETRLNQNFKDKATLTVDKSSSTSYMQLSSPTSEDSAVYYCARGEGLGAARSVSMDYWGQGTTVTVSS VL: DILMTQSPSSLSASLGDRVTISCRASQDISNYLNWYQQKPDGTVKVLIYYTAILHSGVPSRFSGSGSGTDYSLTISNLEQEDIATYFCQQGNTLPWTFGGGTKLEIK | –
3 | binds | binds | binds | TNFR2 antibody #226 (antibody, V domains shown) VH: EVQLQESGAELVRPGASVKLSCKASGYSFTNYWMNWVKQRPGQGLEWIGMIHPSDSETRLNQKFKDKATLTVDKSSSTAYMQLSSPTSEDSAVYYCARGEGLGAARSVSMDYWGQGTTVTVSS VL: DIQMTQSPSSLSASLGDRVTISCRASQDISNYLNWYQQKPDGTVKVLIYYTALLHSGVPSRFSGSGSGTDYSLTISNLEQEDIATYFCQQGNTLPWTFGGGTKLEIK | –
4 | binds | binds | binds | TNFR2 antibody #352 (antibody, V domains shown) VH: EVQLQESGPGLVAPSQSLSITCTVSGFSLTSYGVHWVRQPPGKGLEWLVVIWSDGGTTYNSALKSRLSISKDNSKSQVFLKMNSLQTDDTAMYYCARHDDDGYYAMDYWGQGTTVTVSS VL: DIVLTQSPSLMSASPGEKVTMTCSASSSVGYMYWYQQKPRSSPKPWIYLTSNLASGVPARFSGSGSGTSYSLTISSMEVEDAATYYCQQWSSDPFTFGSGTKLEIK | –
5 | binds | binds | binds | TNFR2 antibody #365 (antibody, V domains shown) VH: EVQLQESGPGLVQPSQSLSITCTVSGFSLTSYGVHWVRQSPGKGLEWLGLIWSDGSPDYSAAFISRLSINKDNSKSQVFFKMNSLQADDTAIYYCARNDDGGDYVMDYWGQGTTVTVSS VL: EIVLTQSPALMSASPGEKVTMTCSASSSVSYMYWYQQKPRSSPKPWIYLTSNLASGVPARFSGSGSGTSYSLTISSMEAEDAATYYCQQWTSNPLTFGAGTKLEIK | –
6 | binds | binds | binds | TNFR2 antibody #395 (antibody, V domains shown) VH: EVQLQESGPVLVQPSQSLSITCTVSGFSLTSYSVHWVRQSPGKGLEWLGVIWSDGGTDYSAAFISRLSISKDNSKSQVFFKMNSLQADDTAIYYCARNDDGGDYAMDYWGQGTTVTVSS VL: EIVLTQSPALMSASPGEKVTMTCSASSSVSYMYWYQQKPRSSPKPWIYLTSNLASGVPARFSGSGSGTSYSLTISSMEAEDAATYYCQQWSSNPLTFGAGTKLEIK | –
7 | binds | binds | binds | TNFR2 antibody #125 (antibody, V domains shown) VH: EVQLQESGGGLVQPGGSLNLSCAASGFAFSIYDLSWVRQTPEKRLEWVAYINNGGISTYYSDTVKGRFTISRDNAKNTLYLQMSSLKSEDTAMYYCVRGPFYGSANYFDYWGQGTTVTVSS VL: DIQMTQSPASLSLSVGETVTITCRASENIYSNLAWYQQKQGKSPQLLVYDATKLAEGVPSRFSGSESGTQYSLKINSLQSEDFGTYYCQHFWVTPWTFGGGTKLEIK | –
8 | binds | binds | binds | TNFR2 antibody #001 (antibody, V domains shown, also called antibody #1) VH: EVQLQESGGGLVQPGGSLNLSCAASGFAFSTYDLSWVRQTPEKRLEWVAYINNGGISTYYSDTVKGRFTISRDNAKNTLYLQMSSLKSEDTAMYYCVRGPFYGSANYFDYWGQGTTVTVSS VL: EIVMTQSPASLSLSVGETVTITCRTSESIYSNLPWYQQKQGKSPQLLVYDATKLAEGVPSRFSGSESGTQYSLKINSLQSEDFGTYYCQHFWVTPWTFGGGTKLEIK | –
9 | binds | binds | binds | TNFR2 antibody #088 (antibody, V domains shown) VH: EVQLQESGGGLVQPGGSLNLSCAASGFAFSTYDLSWVRQTPGKRLEWVAYINNGGISTYYSDTVKGRFTITRDNAKNTLYLQMSSLKSEDTAMYYCVRGPFYGSANYFDYWGQGTTVTVSS VL: DILMTQSPASLSLFVGETVTITCRASENIYSNLAWYQQKQGKSPQLLVYDATKLAEGVPSRFSGSESGTQYSLKINSLQSEDFGTYYCQHFWVTPWTFGGGTKLEIK | binding [4]: binds; binding [5]: binds; binding [6]: binds; binding [7]: binds; binding [8]: binds; binding [9]: binds; binding [10]: binds; binding [11]: binds
10 | binds | binds | binds | TNFR2 antibody #133 (antibody, V domains shown) VH: EVQLQESGAELVRSGASVKLSCTASGFNIKDYYIQWVKQRPEQGLEWIGWIDPESGNTKYAPKFQDKATMTADTSSNTAYLQLSGLTSEDSAVYYCNAYYDYDGSMDYWGQGTTVTVSS VL: DIVMTQSPLSLPVSLGDQASISCRSSQSLVHSNGNTYLHWYLQKPGQSPKLLIYKVSNRFSGVPDRFSGSGSGTDFTLKISRVETDDLGVYFCSQSTHVPTWTFGGGTKLEIK | –
11 | binds | binds | binds | TNFR2 antibody #224 (antibody, V domains shown) VH: EVQLQESGPEIVKPGASVKLSCTASGFNNKDIYMHWVKQRPEQGLEWIGRIDPATGNTKHDPKFQDKATLSSDTSSNTAYLQFSSLTSEDTAVYYCAHSPYGDFGAMDYWGQGTTVTVSS VL: DIQMTQSPAIMSASLGERVTMTCTASSSVSSNYLHWYQQKPGSSPKLWIYSTSNLPSGVPARFSGSGSGTSYSLTISSMEAEDAATYYCHQYHRSPWTFGGGTKLEIK | –
